Assay results reported in the supplement of paper PMC12819154, “High-throughput peptide-centric local stability assay extends protein–ligand identification to membrane proteins, tissues and bacteria” (Nature Structural & Molecular Biology, 2025).
Some of the results follow. Most values lie at the level of the controls, where differences are scatter.

Protein sequences, listed by entry. Tags and fused reporters are not part of them. Lines headed by an entry give the natural chain unless they say otherwise; changes in a name come on top.
UniProt P41052: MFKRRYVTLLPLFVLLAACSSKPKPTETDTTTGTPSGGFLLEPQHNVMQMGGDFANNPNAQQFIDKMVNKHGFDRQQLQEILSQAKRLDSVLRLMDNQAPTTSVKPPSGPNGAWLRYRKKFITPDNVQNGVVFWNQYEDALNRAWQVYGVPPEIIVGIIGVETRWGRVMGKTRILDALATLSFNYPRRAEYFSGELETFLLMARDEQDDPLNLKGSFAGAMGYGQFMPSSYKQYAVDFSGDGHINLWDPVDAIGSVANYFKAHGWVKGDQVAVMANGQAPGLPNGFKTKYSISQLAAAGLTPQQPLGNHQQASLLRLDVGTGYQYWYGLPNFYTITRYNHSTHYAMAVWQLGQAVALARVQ
UniProt P39391: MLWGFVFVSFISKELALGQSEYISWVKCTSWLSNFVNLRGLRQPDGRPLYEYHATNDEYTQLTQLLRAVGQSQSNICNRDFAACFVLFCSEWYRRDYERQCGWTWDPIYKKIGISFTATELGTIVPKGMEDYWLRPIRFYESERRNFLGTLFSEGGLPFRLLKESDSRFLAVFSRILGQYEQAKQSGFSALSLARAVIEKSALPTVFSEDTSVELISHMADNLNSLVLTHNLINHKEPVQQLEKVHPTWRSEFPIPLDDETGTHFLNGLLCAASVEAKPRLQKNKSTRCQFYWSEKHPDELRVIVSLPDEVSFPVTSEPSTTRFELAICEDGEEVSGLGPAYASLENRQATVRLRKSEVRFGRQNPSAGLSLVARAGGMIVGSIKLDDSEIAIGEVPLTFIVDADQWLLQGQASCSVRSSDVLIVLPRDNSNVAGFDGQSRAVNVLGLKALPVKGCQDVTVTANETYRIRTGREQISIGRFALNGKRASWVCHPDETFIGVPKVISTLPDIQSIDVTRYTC
UniProt P37049: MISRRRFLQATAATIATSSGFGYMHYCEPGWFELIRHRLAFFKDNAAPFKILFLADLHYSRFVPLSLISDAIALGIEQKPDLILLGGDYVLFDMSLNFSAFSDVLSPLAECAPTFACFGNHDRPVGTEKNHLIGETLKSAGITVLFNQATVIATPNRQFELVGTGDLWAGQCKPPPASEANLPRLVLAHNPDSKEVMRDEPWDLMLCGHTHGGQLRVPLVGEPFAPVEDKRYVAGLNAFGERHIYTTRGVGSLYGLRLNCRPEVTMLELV
UniProt P42632, whole entry: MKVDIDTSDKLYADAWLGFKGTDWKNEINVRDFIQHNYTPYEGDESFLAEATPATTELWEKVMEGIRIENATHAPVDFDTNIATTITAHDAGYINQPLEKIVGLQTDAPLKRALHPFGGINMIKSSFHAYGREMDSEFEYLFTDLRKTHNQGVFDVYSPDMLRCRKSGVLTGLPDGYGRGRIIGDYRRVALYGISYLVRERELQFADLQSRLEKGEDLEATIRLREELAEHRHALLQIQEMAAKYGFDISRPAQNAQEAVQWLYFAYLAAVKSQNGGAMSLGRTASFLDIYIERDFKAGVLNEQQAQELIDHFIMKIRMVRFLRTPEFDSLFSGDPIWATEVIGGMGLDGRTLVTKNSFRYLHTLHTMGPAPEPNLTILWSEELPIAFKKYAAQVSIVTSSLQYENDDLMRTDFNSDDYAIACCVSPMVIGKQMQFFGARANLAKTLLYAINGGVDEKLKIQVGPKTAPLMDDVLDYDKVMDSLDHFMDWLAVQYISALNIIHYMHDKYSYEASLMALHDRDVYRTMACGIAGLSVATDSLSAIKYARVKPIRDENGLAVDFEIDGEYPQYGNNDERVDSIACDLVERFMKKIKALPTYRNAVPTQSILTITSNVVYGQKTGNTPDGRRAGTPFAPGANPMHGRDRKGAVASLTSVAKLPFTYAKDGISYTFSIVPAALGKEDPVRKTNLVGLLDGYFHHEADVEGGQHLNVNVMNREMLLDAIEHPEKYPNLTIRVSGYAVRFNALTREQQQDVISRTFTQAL
UniProt P37344, whole entry: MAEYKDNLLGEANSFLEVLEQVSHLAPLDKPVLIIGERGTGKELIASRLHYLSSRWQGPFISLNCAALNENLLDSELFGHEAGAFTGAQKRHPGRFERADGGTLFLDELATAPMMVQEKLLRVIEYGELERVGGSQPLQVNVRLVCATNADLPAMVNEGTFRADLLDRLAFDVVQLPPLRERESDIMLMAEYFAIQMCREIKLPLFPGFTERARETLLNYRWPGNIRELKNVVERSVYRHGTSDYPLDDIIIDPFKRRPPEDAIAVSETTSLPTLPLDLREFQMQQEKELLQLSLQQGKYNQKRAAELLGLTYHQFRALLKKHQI
UniProt P36673: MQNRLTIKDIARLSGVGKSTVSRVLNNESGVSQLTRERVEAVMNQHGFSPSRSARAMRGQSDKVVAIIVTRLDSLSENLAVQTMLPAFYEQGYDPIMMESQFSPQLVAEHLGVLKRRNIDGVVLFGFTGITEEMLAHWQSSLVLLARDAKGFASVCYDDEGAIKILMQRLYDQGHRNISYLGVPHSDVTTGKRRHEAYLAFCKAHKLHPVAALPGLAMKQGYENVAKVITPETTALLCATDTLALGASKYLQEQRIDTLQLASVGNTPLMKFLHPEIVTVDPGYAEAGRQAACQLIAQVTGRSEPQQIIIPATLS
UniProt P36667: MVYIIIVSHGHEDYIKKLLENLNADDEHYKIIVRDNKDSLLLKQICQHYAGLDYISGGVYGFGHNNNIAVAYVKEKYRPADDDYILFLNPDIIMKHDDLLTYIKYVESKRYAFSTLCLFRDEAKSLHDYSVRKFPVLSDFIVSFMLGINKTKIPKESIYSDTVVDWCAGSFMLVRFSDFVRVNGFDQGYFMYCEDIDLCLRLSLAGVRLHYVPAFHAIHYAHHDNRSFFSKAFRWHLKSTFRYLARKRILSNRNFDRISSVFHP
UniProt P37766: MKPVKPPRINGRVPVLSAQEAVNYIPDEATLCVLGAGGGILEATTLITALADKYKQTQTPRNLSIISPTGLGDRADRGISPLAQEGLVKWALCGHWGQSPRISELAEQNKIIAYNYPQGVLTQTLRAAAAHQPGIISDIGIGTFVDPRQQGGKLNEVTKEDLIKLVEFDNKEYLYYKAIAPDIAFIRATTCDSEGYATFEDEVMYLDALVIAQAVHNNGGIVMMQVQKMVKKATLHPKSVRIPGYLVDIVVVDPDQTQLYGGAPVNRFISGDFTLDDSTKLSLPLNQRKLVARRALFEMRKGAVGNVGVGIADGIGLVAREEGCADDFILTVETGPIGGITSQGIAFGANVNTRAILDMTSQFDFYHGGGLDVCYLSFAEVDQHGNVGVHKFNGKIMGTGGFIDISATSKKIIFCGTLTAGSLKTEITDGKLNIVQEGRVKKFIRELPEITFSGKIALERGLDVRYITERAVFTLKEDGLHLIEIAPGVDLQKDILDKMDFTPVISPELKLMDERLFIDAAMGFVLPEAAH
UniProt P42628: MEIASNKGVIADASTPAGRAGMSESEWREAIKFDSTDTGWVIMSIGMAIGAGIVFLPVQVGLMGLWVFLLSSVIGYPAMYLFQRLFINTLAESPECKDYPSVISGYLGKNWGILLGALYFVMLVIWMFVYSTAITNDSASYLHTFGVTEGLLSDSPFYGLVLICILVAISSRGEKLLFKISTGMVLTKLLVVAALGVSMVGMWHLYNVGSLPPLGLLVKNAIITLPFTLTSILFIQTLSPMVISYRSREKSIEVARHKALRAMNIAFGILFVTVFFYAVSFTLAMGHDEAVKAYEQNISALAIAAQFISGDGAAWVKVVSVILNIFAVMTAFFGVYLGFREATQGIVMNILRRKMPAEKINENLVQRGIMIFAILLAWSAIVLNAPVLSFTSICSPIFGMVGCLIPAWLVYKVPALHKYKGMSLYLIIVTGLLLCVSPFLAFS
UniProt P45464: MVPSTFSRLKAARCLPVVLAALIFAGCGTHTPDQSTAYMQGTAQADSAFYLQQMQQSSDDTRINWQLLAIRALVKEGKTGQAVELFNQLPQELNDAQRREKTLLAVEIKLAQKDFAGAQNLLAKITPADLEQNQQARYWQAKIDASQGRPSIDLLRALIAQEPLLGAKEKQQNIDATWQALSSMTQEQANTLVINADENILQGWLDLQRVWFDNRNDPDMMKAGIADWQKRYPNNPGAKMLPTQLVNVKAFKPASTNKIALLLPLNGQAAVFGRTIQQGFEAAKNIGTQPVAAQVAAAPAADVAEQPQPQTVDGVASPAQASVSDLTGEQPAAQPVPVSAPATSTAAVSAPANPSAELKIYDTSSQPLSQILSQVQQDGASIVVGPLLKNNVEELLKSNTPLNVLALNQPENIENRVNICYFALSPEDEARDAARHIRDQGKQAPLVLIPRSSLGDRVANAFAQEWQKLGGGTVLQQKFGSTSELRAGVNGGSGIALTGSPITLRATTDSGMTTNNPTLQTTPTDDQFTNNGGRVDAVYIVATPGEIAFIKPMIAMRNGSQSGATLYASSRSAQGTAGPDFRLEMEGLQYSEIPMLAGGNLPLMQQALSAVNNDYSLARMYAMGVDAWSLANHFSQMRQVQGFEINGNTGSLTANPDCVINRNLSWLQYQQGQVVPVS
UniProt P39356: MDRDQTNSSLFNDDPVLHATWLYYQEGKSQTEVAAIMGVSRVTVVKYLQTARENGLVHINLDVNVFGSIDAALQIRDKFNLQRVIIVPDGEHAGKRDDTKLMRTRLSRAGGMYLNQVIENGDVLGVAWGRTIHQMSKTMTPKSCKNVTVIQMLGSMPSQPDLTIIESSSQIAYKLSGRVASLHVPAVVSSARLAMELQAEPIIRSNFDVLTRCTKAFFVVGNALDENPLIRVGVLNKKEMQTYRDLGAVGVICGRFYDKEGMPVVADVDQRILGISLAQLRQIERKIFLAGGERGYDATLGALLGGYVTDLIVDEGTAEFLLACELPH
UniProt P37685: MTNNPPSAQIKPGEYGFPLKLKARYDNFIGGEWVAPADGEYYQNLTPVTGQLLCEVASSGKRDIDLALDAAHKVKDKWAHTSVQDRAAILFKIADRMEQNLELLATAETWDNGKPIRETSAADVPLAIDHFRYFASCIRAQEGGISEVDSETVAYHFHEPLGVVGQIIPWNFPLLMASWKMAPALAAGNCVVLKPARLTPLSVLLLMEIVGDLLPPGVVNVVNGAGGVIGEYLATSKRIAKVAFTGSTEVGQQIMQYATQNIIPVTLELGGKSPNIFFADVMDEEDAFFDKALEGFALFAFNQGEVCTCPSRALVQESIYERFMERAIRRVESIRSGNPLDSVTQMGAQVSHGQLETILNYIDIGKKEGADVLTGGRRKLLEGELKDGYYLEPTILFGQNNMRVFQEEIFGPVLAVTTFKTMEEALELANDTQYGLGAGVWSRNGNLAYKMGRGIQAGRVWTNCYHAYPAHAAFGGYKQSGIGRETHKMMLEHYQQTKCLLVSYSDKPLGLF
UniProt P37047: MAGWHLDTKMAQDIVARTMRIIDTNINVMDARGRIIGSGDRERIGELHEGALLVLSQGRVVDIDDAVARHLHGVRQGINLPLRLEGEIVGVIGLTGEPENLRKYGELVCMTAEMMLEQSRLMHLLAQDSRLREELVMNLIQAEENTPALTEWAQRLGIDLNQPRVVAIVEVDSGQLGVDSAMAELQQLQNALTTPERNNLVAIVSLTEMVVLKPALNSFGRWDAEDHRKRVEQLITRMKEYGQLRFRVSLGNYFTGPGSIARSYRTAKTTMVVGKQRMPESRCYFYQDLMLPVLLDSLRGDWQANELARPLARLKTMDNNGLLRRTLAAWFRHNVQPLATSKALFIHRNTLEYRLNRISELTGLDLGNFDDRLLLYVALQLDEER
UniProt P39160: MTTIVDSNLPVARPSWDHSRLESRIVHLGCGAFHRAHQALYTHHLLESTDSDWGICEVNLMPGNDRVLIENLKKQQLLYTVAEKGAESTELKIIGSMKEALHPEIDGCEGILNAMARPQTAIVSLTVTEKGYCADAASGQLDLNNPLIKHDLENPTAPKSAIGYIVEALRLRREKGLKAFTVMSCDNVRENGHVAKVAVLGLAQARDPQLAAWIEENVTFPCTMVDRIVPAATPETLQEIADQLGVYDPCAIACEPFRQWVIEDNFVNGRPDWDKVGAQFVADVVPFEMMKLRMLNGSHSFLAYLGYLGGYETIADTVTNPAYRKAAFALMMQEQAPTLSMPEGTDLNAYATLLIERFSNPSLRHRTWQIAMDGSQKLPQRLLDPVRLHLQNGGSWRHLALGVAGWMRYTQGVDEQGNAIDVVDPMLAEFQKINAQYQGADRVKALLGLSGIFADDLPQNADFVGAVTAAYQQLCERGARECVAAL
UniProt P37387: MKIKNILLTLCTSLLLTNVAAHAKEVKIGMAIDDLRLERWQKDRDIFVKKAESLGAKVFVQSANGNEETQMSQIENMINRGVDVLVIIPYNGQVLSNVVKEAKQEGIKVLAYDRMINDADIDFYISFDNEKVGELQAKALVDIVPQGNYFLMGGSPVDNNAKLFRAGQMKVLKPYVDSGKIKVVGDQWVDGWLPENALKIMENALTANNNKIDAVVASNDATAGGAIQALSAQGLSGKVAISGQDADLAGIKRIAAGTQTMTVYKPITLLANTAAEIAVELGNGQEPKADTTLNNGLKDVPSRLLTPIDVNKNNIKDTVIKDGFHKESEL

compound: CC1(C)S[C@@H]2[C@H](NC(=O)[C@H](N)c3ccccc3)C(=O)N2[C@H]1C(=O)O [ampicillin]; assay: log2 fold change of tryptic peptide abundance, ligand vs vehicle (limited proteolysis) (log2 ratio); higher = more trypsin-susceptible (destabilized); conditions: ligand concentration: 10 uM; sample: E. coli crude lysate

Target | log2 fold change
UniProt P45523 (peptide sequence: YMENSLKEQEKLGIK, peptide start residue: 59) | -0.302
UniProt P41052 (peptide sequence: QQLQEILSQAK, peptide start residue: 76) | -0.0726
UniProt P42599 (peptide sequence: QTGVIFPADSVK, peptide start residue: 316) | 0.509
UniProt P39391 (peptide sequence: ILGQYEQAK, peptide start residue: 176) | -0.212
UniProt P39325 (peptide sequence: AAETNVAKSEAEKR, peptide start residue: 39) | 0.351
UniProt P37049 (peptide sequence: NHLIGETLK, peptide start residue: 130) | -0.00135
UniProt P38036 (peptide sequence: FNHLFQSIK, peptide start residue: 379) | 0.46
UniProt P39451 (peptide sequence: DHHVDVTYK, peptide start residue: 9) | 0.324
UniProt P42632 (peptide sequence: KGAVASLTSVAKLPFTYAK, peptide start residue: 647) | -0.281
UniProt P37309 (peptide sequence: ESGLLLDRK, peptide start residue: 56) | -0.19
UniProt P37344 (peptide sequence: ELLQLSLQQGK, peptide start residue: 289) | -0.38
UniProt P36673 (peptide sequence: NISYLGVPHSDVTTGK, peptide start residue: 177) | -0.466
UniProt P45524 (peptide sequence: IHGYADAIDYYRQCSAMPMLNR, peptide start residue: 246) | 0.841
UniProt P37177 (peptide sequence: RIDYAEAENLAQR, peptide start residue: 705) | -0.417
UniProt P36667 (peptide sequence: HDDLLTYIK, peptide start residue: 96) | -0.378
UniProt P37766 (peptide sequence: WALCGHWGQSPR, peptide start residue: 90) | -0.513
UniProt P38104 (peptide sequence: LAAKYPYEPAYLPVAR, peptide start residue: 380) | 0.262
UniProt P37769 (peptide sequence: LMANEWAK, peptide start residue: 171) | -0.0993

Shown tab-delimited: entries from further up
Target	log2 fold change
UniProt P36673 (peptide sequence: NISYLGVPHSDVTTGK, peptide start residue: 177)	-0.466
UniProt P45524 (peptide sequence: IHGYADAIDYYRQCSAMPMLNR, peptide start residue: 246)	0.841
UniProt P37177 (peptide sequence: RIDYAEAENLAQR, peptide start residue: 705)	-0.417

Next results.

Target | log2 fold change
UniProt P37689 (peptide sequence: QMGNSEVGHVNLGAGR, peptide start residue: 60) | 0.12
UniProt P39177 (peptide sequence: LQTMVSHFTIDPSR, peptide start residue: 70) | -0.133
UniProt P42630 (peptide sequence: DMNDKYR, peptide start residue: 434) | 0.143
UniProt P42628 (peptide sequence: GVIADASTPAGR, peptide start residue: 8) | -0.0272
UniProt P33667 (peptide sequence: GEWAEVAEWVK, peptide start residue: 352) | 0.562
UniProt P39453 (peptide sequence: TAELQELVIEHR, peptide start residue: 420) | 0.397
UniProt P36548 (peptide sequence: TSNGHSKPK, peptide start residue: 41) | -0.459
UniProt P39321 (peptide sequence: DLTLSDVR, peptide start residue: 57) | -0.459
UniProt P37329 (peptide sequence: LAVGDPEHVPAGIYAK, peptide start residue: 139) | 0.639
UniProt P45464 (peptide sequence: SAQGTAGPDFR, peptide start residue: 572) | 0.391
UniProt P45522 (peptide sequence: GRVEAHELLQAGVTQFSR, peptide start residue: 500) | -0.513
UniProt P39356 (peptide sequence: VASLHVPAVVSSAR, peptide start residue: 179) | -0.221
UniProt P37685 (peptide sequence: ALVQESIYER, peptide start residue: 313) | -0.121
UniProt P37388 (peptide sequence: DGQHIGTR, peptide start residue: 217) | 0.124
UniProt P37047 (peptide sequence: IIGSGDRER, peptide start residue: 35) | -0.839
UniProt P39160 (peptide sequence: IVHLGCGAFHR, peptide start residue: 25) | -0.624
UniProt P37387 (peptide sequence: VAISGQDADLAGIKR, peptide start residue: 239) | -0.63
UniProt P43674 (peptide sequence: TQSMFDSHPPSTER, peptide start residue: 229) | 0.325
